Screening data

Data taken from PubChem BioAssay AID504749, deposited by NCATS (2011).

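Malaria parasite (P. falciparum) lines kept in red blood cells; parasite DNA is measured by SYBR Green fluorescence after lysis, 72 h after compound addition. Each compound was titrated across a series from about 0.000037 to 29 µM. The number is the fitted AC50, the concentration giving a half-maximal change in signal; a lower value means higher potency, whether the curve shows a decrease or an increase. Calls follow the curve class and fit quality: every row here is inconclusive, covering signal-raising curves and weak, poorly fitted, partial or highest-dose-only inhibition curves.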

Values are in µM. All entries here are filed as inconclusive. Only part of the assay is shown, chiefly results filed as inconclusive. A potency from a partial, single-point or poor curve is only a rough figure. The first word of each remark tells which way the curve ran; it can be opposite to the aim of the assay.

| # | structure | tested on / at | fitted potency (µM) | remark |
|---|---|---|---|---|
| 1 | `COP(=S)(OC)Oc1ccc(SC)c(C)c1` | JCK | 17.78 | inhibitor, single point |
| 2 | `COP(=S)(OC)Oc1ccc(SC)c(C)c1` | PC26 | 0.0008 | activator |
| 3 | `COP(=S)(OC)Oc1ccc(SC)c(C)c1` | CP291 | 15.1 | inhibitor, partial curve |
| 4 | `O=C(NCCNCC(O)COc1ccc(O)cc1)N1CCOCC1` (centres unmarked) | W2 | 0.0601 | inhibitor, full curve, poor fit |
| 5 | `C[N+](C)(C)CC(=O)[O-]` | CP260 | 15.85 | inhibitor, single point |
| 6 | `CC1=C(/C=C/C(C)=C/C=C/C(C)=C/C=C/C=C(C)/C=C/C=C(C)/C=C/C2=C(C)CCCC2(C)C)C(C)(C)CCC1` | CP266 | 19.01 | inhibitor, single point |
| 7 | `O=C(Nc1ccc(Br)cc1)c1cc(Br)c(Br)s1` | W2 | 13.46 | inhibitor, single point |
| 8 | `O=C(Nc1ccc(Br)cc1)c1cc(Br)c(Br)s1` | CP315 | 19.01 | inhibitor, single point |
| 9 | `CN1C(=S)CN=C(c2ccccc2)c2cc(Cl)ccc21` | CP247 | 1.413 | inhibitor, single point |
| 10 | `CN1C(=S)CN=C(c2ccccc2)c2cc(Cl)ccc21` | CP192 | 4.256 | inhibitor, partial curve, poor fit |
| 11 | `COc1cc2c(cc1OC)CC(=O)N(CCCN(C)C[C@H]1Cc3cc(OC)c(OC)cc31)CC2` | DIV17 | 10.69 | inhibitor, single point |
| 12 | `COc1cc2c(cc1OC)CC(=O)N(CCCN(C)C[C@H]1Cc3cc(OC)c(OC)cc31)CC2` | DIV14 | 8.492 | inhibitor, partial curve, poor fit |
| 13 | `COc1cc2c(cc1OC)CC(=O)N(CCCN(C)C[C@H]1Cc3cc(OC)c(OC)cc31)CC2` | CP237 | 11.22 | inhibitor, single point |
| 14 | `COc1cc2c(cc1OC)CC(=O)N(CCCN(C)C[C@H]1Cc3cc(OC)c(OC)cc31)CC2` | DIV30 | 19.01 | inhibitor, single point |
| 15 | `C=C(c1ccc(C(=O)O)cc1)c1cc2c(cc1C)C(C)(C)CCC2(C)C` | HB3 | 17.78 | inhibitor, single point |
| 16 | `C=C(c1ccc(C(=O)O)cc1)c1cc2c(cc1C)C(C)(C)CCC2(C)C` | Dd2 | 15.85 | inhibitor, single point |
| 17 | `C=C(c1ccc(C(=O)O)cc1)c1cc2c(cc1C)C(C)(C)CCC2(C)C` | DIV14 | 0.3381 | inhibitor, partial curve, poor fit |
| 18 | `C=C(c1ccc(C(=O)O)cc1)c1cc2c(cc1C)C(C)(C)CCC2(C)C` | W2 | 19.01 | inhibitor, single point |
| 19 | `C=C(c1ccc(C(=O)O)cc1)c1cc2c(cc1C)C(C)(C)CCC2(C)C` | CP286 | 11.22 | inhibitor, single point |
| 20 | `C=C(c1ccc(C(=O)O)cc1)c1cc2c(cc1C)C(C)(C)CCC2(C)C` | 3D7 | 10 | inhibitor, single point |
| 21 | `C=C(c1ccc(C(=O)O)cc1)c1cc2c(cc1C)C(C)(C)CCC2(C)C` | CP335 | 4.256 | inhibitor, partial curve |
| 22 | `C=C(c1ccc(C(=O)O)cc1)c1cc2c(cc1C)C(C)(C)CCC2(C)C` | CP260 | 10 | inhibitor, single point |
| 23 | `C[C@@]12CC[C@H]3[C@@H](CC[C@@H]4C[C@H]5S[C@H]5C[C@]43C)[C@H]1CC[C@H]2O` | 7G8 | 7.08 | inhibitor, single point |
| 24 | `C[C@@]12CC[C@H]3[C@@H](CC[C@@H]4C[C@H]5S[C@H]5C[C@]43C)[C@H]1CC[C@H]2O` | ICS | 5.012 | inhibitor, single point |
| 25 | `C[C@@]12CC[C@H]3[C@@H](CC[C@@H]4C[C@H]5S[C@H]5C[C@]43C)[C@H]1CC[C@H]2O` | W2 | 5.726 | inhibitor, single point |
| 26 | `C=CCN1C(=O)C(CC(C)C)NC1=S` (centres unmarked) | CP262 | 13.46 | activator, single point |
| 27 | `C=CCN1C(=O)C(CC(C)C)NC1=S` (centres unmarked) | TAB113 | 3.981 | inhibitor, single point |
| 28 | `CCN1CCc2nc(N)oc2CC1` | CP268 | 0.0008 | activator |
| 29 | `CC(C)=CCC[C@](C)(O)C1CC=C(C)CC1` (some centres unmarked) | CP266 | 1.51 | inhibitor, single point |
| 30 | `CC(=O)Oc1cc(C(F)(F)F)ccc1C(=O)O` | CP260 | 5.012 | inhibitor, single point |
| 31 | `CC(C)(C)NC[C@H](O)c1cc(O)cc(O)c1` | CP262 | 10.69 | activator, partial curve, poor fit |
| 32 | `CC(C)(C)NC[C@H](O)c1cc(O)cc(O)c1` | CP211 | 0.0478 | inhibitor, full curve, poor fit |
| 33 | `CC(C)(C)NC[C@H](O)c1cc(O)cc(O)c1` | TAB109 | 3.981 | inhibitor, single point |
| 34 | `CC(C)(C)NC[C@H](O)c1cc(O)cc(O)c1` | DIV14 | 19.01 | inhibitor, single point |
| 35 | `O=c1[nH]cc(N(CCCl)CCCl)c(=O)[nH]1` | ICS | 14.13 | inhibitor, single point |
| 36 | `O=c1[nH]cc(N(CCCl)CCCl)c(=O)[nH]1` | CP325 | 4.776 | activator, partial curve, poor fit |

Repeated from the top, 5 entries:

{"structure": "COP(=S)(OC)Oc1ccc(SC)c(C)c1", "tested on / at": "JCK", "fitted potency (µM)": "17.78", "remark": "inhibitor, single point"}
{"structure": "COP(=S)(OC)Oc1ccc(SC)c(C)c1", "tested on / at": "PC26", "fitted potency (µM)": "0.0008", "remark": "activator"}
{"structure": "COP(=S)(OC)Oc1ccc(SC)c(C)c1", "tested on / at": "CP291", "fitted potency (µM)": "15.1", "remark": "inhibitor, partial curve"}
{"structure": "O=C(NCCNCC(O)COc1ccc(O)cc1)N1CCOCC1", "stereo": "centres unmarked", "tested on / at": "W2", "fitted potency (µM)": "0.0601", "remark": "inhibitor, full curve, poor fit"}
{"structure": "C[N+](C)(C)CC(=O)[O-]", "tested on / at": "CP260", "fitted potency (µM)": "15.85", "remark": "inhibitor, single point"}